Measurements published in patent publication US20210290732A1 (Spitfire Pharma LLC, priority 2020, published 2021).
HELM strings list residues between dots; [ac] is acetyl, [am] amide, other brackets name non-standard units.

Assay: peptide made by a vendor (Fmoc solid-phase peptide synthesis; Rink amide resin; DIC/HBT (DIC/Oxyma for lactam formation))
Conditions: whole synthesis, analytical HPLC/mass spectrometry

PEPTIDE1{H.[XAib].Q.G.T.F.T.S.D.Y.S.K.Y.L.D.E.[XKGlcA].A.A.K.E.F.I.Q.W.L.L.Q.T.[am]}$PEPTIDE1,PEPTIDE1,16:R3-20:R3$$$V2.0
final HPLC purity: 95.22%
